# Data as given in PubChem BioAssay AID1508588 (Peter MacCallum Cancer Centre, 2020).
# Screen: 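Knock-downs boosting vemurafenib effects on melanoma cell growth or lactate release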 (primary screen)
# Cell system: human WM266.4 melanoma cells (BRAF V600 mutant)
# Reagent: siRNA pool against human genes, 40 nM
# Duration: 96 h from transfection to read-out
# Conditions: vemurafenib 300 nM (about IC25), added 48 h after transfection, for 48 h; comparison arm got DMSO vehicle only
# Detection: 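Cell gain (DAPI nuclei at end minus before drug, mean of two replicates) and medium lactate by absorbance per cell, both as ratio to non-targeting siRNA, also grouped into fold-change classes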
# Reading the numbers: cell gain with vemurafenib: higher = more cell gain than with non-targeting siRNA; lactate per cell with vemurafenib: higher = more lactate made per cell
# Rule for the call: 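Enhancement is called by pairing each knock-down's vehicle-arm and drug-arm fold-change classes for viability or glycolysis; which class combinations qualify is not given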
# Meaning of the calls: active = enhances vemurafenib effect; inactive = no enhancement seen
# The deposit covers about 18,000 reagents; below is a random part of them. Of all reagents, 790 (4.4%) got an active call. 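Calls rest on a combination of fold-change classes in drug and vehicle arms, not all shown here.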 Unmarked entries are inactive. Reagent sequences are not shown.
gene symbol,PubChem SID,cell gain with vemurafenib,lactate per cell with vemurafenib
TMPRSS3,SID135621129,0.68,1.02
CUTA,SID152153173,0.43,1.27
ABT1,SID134317895,1.15,0.66
LEP,SID134315435,1.07,0.64
FASTK,SID56479004,0.58,1.8
CSTB,SID134321189,0.3,1.46
PDXK,SID56478979,0.94,0.74
CLEC12A,SID152149320,0.78,0.86
RRAGB,SID135622264,0.41,0.9
SNRK,SID152154333,0.49,0.94
IL17RD,SID152151043,0.13 (active),0.04
PCYOX1L,SID135621568,0.35,1.21
PABPC1L2B,SID135625506,0.39,1.4
FBXO47,SID152148459,0.85,1.04
IFIT1B,SID135625302,0.59,0.96
MARVELD3,SID152150407,0.52,0.75
PRSS50,SID135621698,0.49,1.61
NIPA2,SID152153686,0.78 (active),0.7
FECH,SID152149847,0.04,0.99
CYLD,SID152156330,-0.08,2.08
L3MBTL3,SID152150790,0.22 (active),-0.03
ZNF8,SID134318302,0.38,1.5
KRTAP19-2,SID134322430,0.88,1.3
FGF7,SID134315983,0.69,0.6
SPACA3,SID135623392,0.51,1.32
TPRG1,SID135625107,0.51,1.18
TULP3,SID152152800,1,0.78
CD300LD-AS1,SID134320411,0.87,0.27
GNAO1,SID152151717,1.25,0.81
G3BP2,SID134319375,0.48,0.8
SEC14L2,SID152149863,1.24,0.66
SPOP,SID135623417,0.67,1.02
NSUN4,SID134326878,1.32,1.12
NOTCH1,SID152154581,1.03,1.04
SRSF10,SID135622419,1.12,0.82
OR2B11,SID152154110,-0.08,0.68
ZNF510,SID152148247,0.28,1.1
LINC00303,SID135623600,0.28,0.85
FDFT1,SID152147886,0.34,0.22
STAR,SID135623734,0.18,0.68
CNRIP1,SID135622644,1.02,0.74
DOCK7,SID152149470,0.47,0.66
SMOC1,SID152154824,1.37,0.53
WNT9B,SID152148326,0.64,1.3
TMEM163,SID152150007,0.46,1.36
PMM2,SID134315459,0.94,1.27
TRPS1,SID152147034,0.79,1.45
OR2T2,SID134329838,0.18,1.54
TADA3,SID134321441,0.25,1.83
ARNT,SID134312324,0.56,0.84
RPL37,SID152154546,-0.01,0.98
NIT2,SID135623414,0.55,0.7
ATXN1,SID152153552,0.97,0.96
COCH,SID134316161,0.92,0.64
TWNK,SID152148179,1.14,0.84
TPSAB1,SID135621131,1.06,1
RBM15B,SID152150849,-0.09,1.75
NDUFA8,SID134316763,0.57,1.9
CFAP126,SID135624296,0.18,1.31
CCDC117,SID134322407,0.71,1.11
PNMA1,SID135622376,0.74,1.07
CLEC4G,SID152153148,0.54,1.11
TAS2R8,SID134314666,0.64,0.51
KPNA4,SID134321412,0.68,1.05
UTP20,SID152147652,0.41,0.71
OR2A2,SID152152309,0.1,0.3
RHOD,SID134313781,0.53,0.24
EDC4,SID134320618,0.62 (active),0.45
CCDC42,SID134319839,0.58,0.94
HHEX,SID152148315,0.35,1.94
SRD5A1,SID152154913,0.22,1.62
SELENOM,SID134319278,0.96,0.89
SLC9A9,SID134312383,0.73,0.92
NCEH1,SID152152223,0.98,1.02
TYR,SID152148153,0.52,1.27
IFT52,SID135624096,0.88,0.53
RTL8C,SID152149567,0.57,0.8
UBR4,SID152156230,0.07,0.73
CCL28,SID135621452,0.87,0.68
EFEMP1,SID152153244,1.16,0.72
INVS,SID134316787,0.79,0.75
FAM3D,SID134320521,0.78,0.37
IL22RA1,SID134312907,0.06,0.77
SEC11A,SID152148410,0.5,1.15
HNF4G,SID152147879,0.85,0.92
TSC22D4,SID134311814,0.73,0.62
ETS2-AS1,SID135625289,1.04,0.73
PHF5A,SID135622856,1.03,0.84
VPS13A,SID152149920,0.64,1.02
MMP16,SID152154796,0.68,0.44
PDCD7,SID134316393,0.13,1.97
CIDEC,SID134320172,0.83,0.86
C16orf90,SID135625507,0.78,0.5
C1QTNF8,SID152150833,0.47,-0.08
FUT7,SID152151254,0.73,0.88
ZFP41,SID152156606,1.26,0.58
OR2T27,SID152154926,0.91,1.39
LAMTOR3,SID56478688,1.1,0.77
SOX3,SID134316435,0.07,0.82
PPP2R5E,SID134313398,0.1,0.98
RBAK,SID152155334,0.74,1.17
TUBE1,SID134312006,0.62,1.02
TJAP1,SID134319284,0.37,0.61
ZWILCH,SID152152805,0.98,0.46
LGALS9C,SID135625553,0.59 (active),0.38
KRTAP5-5,SID135625301,0.32,1.13
SH3BP2,SID152147592,1.23,0.9

Ordered by “cell gain with vemurafenib” (lowest first): some entries from above.
gene symbol,PubChem SID,cell gain with vemurafenib,lactate per cell with vemurafenib
IL22RA1,SID134312907,0.06,0.77
SEC11A,SID152148410,0.5,1.15
TSC22D4,SID134311814,0.73,0.62
FAM3D,SID134320521,0.78,0.37
INVS,SID134316787,0.79,0.75
HNF4G,SID152147879,0.85,0.92
PHF5A,SID135622856,1.03,0.84
ETS2-AS1,SID135625289,1.04,0.73
